Where a chain is given by its changes, count along the chain named. No constants are given. Whether binding was seen depends on the method and setting. In cells and extracts the contact can be indirect. For some of these results: A result given as binding can be weak or reduced; the word gives no strength. Tags and fused reporters may be left off the sequences shown.
What was measured:
Experiment in all cases: co-IP; COS-7 cells cotransfected for 48 h in 10% FBS DMEM with FLAG-MKP7 (WT or mutants) and p38α MAPK-HA, JNK1β-GFP or ERK2-HA; Pierce IP lysis buffer; immunoprecipitation with anti-FLAG M2 overnight and protein-G beads; immunoblot with anti-HA or anti-GFP; quantitation as MAPK/FLAG-MKP7
[1] = molecular target: T1, Full-length FLAG-tagged MKP7 WT (1-665 aa) (human) (UniProt Q9BY84)
T1 sequence: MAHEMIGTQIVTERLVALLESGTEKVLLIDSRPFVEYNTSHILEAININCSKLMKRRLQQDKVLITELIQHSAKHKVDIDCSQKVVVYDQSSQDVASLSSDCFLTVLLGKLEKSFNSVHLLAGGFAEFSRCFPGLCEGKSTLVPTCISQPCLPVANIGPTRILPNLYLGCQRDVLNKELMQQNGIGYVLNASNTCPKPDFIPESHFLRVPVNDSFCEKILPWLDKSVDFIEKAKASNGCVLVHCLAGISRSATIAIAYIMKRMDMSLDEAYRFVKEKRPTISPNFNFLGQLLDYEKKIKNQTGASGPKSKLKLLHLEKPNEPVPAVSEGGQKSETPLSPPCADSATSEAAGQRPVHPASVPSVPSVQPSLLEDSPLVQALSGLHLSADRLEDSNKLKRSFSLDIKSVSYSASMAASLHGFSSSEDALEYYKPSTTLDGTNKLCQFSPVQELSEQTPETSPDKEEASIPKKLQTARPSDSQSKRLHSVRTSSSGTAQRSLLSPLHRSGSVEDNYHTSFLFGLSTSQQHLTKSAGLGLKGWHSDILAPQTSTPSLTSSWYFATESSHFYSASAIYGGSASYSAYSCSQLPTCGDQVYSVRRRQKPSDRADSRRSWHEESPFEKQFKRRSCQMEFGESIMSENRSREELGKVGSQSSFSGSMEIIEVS

[2] = molecular target: T2, Full-length FLAG-tagged MKP7 Y271S (human) (UniProt Q9BY84)
T2 sequence: T1 sequence with Y271S

[3] = molecular target: T3, Full-length FLAG-tagged MKP7 Y271W (human) (UniProt Q9BY84)
T3 sequence: T1 sequence with Y271W

[4] = molecular target: T4, Full-length FLAG-tagged MKP7 double Y271S/C244S mutant (human) (UniProt Q9BY84)
T4 sequence: T1 sequence with C244S, Y271S

GFP-tagged JNK1 (JNK1β) in pEGFP-C2 (enzyme)
binding [1]: binds | binding [2]: no binding | binding [3]: no binding | binding [4]: no binding

Source: paper PMC9676401
